Experiment [1] has as its target Twist1 (human (endogenous in Tca8113 and Tb3.1)) (UniProt Q15672). As to the kind of experiment: co-IP; lysates (1000 ug protein) of Tca8113 and Tb3.1 cells, precleared with protein A/G beads, 1 ug Twist1 (mouse) or Bcl-2 (rabbit) antibody, IgG as negative control, western blot; cells under normal conditions or CoCl2 hypoxia (Tca8113 12 h, Tb3.1 24 h); binding enhanced after hypoxia.

The chains behind the UniProt entries cited, without tags or fusion partners.
UniProt Q15672: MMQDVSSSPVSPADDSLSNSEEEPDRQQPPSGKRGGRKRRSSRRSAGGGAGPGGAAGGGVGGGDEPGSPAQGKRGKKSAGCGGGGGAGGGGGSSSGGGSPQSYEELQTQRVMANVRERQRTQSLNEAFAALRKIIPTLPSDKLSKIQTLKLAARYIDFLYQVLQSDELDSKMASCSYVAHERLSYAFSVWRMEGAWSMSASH
UniProt P10415: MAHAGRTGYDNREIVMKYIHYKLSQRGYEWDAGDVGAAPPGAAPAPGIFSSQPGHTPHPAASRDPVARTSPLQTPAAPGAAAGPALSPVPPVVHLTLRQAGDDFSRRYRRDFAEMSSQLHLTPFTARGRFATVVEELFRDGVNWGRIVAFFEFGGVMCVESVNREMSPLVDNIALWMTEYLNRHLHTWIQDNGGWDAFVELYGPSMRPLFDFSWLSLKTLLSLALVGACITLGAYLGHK

Experiment [2] deals with B-cell lymphoma-2 (Bcl-2) (human (endogenous in Tca8113 and Tb3.1)) (UniProt P10415). The experiment is described as above.

These are yes or no findings as the source states them, for the method shown. Binding seen in cells or lysates may run through a third protein. Some results given as binding are weak or reduced against the parent protein; the word gives no strength.

Turning to “B-cell lymphoma-2 (Bcl-2) (from UniProt P10415 1-239)”, the binding entry in experiment [1] is “binds”.

For the substance Twist1 (from UniProt Q15672 1-202), in experiment [2], the binding result was “binds”.

(Values after paper PMC5352356.)
